Data: patent publication US20140302113A1, “SYSTEMS, DEVICES, AND METHODS FOR EMBEDDING DRUG MOLECULES INTO MEDICAL CATHETERS OR TUBES” (priority 2011, published 2014)
Like-named read-outs stand apart in the source and are kept apart here.

Question: With CCN(CC)CC(=O)Nc1c(C)cccc1C [Lidocaine, lidocaine] as the molecule, how does the “lidocaine absorbed into the wall of the catheter (initially undissolved particles)” value (out of 550 mg, Experiment 1, autoclave-type heating about one hour) read?
Answer: about 470 mg

Question: What about the “lidocaine absorbed into the wall of the catheter (initially undissolved particles)” value (out of 690 mg, Experiment 2, autoclave-type heating about 60 minutes) of the same molecule?
Answer: ~510 mg
